This is an account of results in patent publication US10414821.

Protein sequences, listed by entry. Tags and fused reporters are not part of them. Lines headed by an entry give the natural chain unless they say otherwise; changes in a name come on top. Residues count along the entry.
UniProt Q15116, residues 25-170: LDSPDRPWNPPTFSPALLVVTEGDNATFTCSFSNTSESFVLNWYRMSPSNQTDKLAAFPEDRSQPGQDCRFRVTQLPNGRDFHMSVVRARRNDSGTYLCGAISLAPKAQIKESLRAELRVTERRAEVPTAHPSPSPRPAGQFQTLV

No constants are given. Whether binding was seen depends on the method and setting. Some entries that bind do so weakly or less than the wild type.

The target in test [1] is purified recombinant PD-1 fusion protein (Sino Biological Inc, Cat #: 10377-H08H) (human) (UniProt Q15116). The test can be described thus: ELISA and Blitz, Example 5. For orientation: In an ELISA, binding on a coated surface is turned into a signal by an enzyme label.
Test [2] shares this target. In words: ELISA on coated recombinant PD-1 fusion protein (FIG. 1).

B1: BA08-1 (antibody, V domains shown)
VH: QVQLVQSGAEVKKPGASVKVSCKASGYTFTSYYMYWVRQAPGQGLEWMGGVNPSNGGTNFNEKFKSRVTITADKSTSTAYMELSSLRSEDTAVYYCARRDYRYDMGFDYWGQGTTVTVSS
VL: EIVLTQSPATLSLSPGERATISCRASKGVSTSGYSYLHWYQQKPGQAPRLLIYLASYLESGVPARFSGSGSGTDFTLTISSLEPEDFATYYCQHSRELPLTFGTGTKVEIK
On to B1, for which the binding result in test [1] and in test [2] was “binds” each time.
